From publication PMC5626478
A weaker result is weaker than the reference pair of the same experiment.

Chains of the proteins cited; added tags and fusions are not shown. Residues count along the entry.
UniProt Q71RC2, 1-286: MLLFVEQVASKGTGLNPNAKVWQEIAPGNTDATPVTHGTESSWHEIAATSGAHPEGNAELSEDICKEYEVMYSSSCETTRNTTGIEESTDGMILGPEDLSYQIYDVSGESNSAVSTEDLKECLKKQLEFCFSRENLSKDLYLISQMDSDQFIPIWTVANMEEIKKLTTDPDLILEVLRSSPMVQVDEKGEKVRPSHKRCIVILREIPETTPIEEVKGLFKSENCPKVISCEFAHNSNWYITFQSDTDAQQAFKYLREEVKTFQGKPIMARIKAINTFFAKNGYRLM

Target: LARP4-NTD (1-286) (human) (UniProt Q71RC2)
Assay: EMSA
Conditions: EMSA as described in Yang et al. 2011, pH and temperature not given, protein in uM, recombinant protein, residues 1-286

## AAAAAAAAAAAAAAA [A15 2'-O-CH3]
2'-O-methyl (at the 3' end)
  binding result: binds more weakly

## AAAAAAAAAAAAAAA [A15 3'-PO4]
3'-phosphate
  binding result: binds more weakly

## UUUUUUUUUUUUUUU [U15 3'-OH]
  binding result: binds more weakly
